In article PMC5458555, “Conformational dynamics of dynamin-like MxA revealed by single-molecule FRET” (Nature Communications, 2017) one finds binding data, which are given here for one molecule.

The target of test [1] is MxA^MO1 (monomeric human MxA construct for crystallization) (human) (UniProt P20591). In words: crystal structure; nucleotide-free crystal structure of MxA^MO1 at 2.9 Å; packing inside the crystal; both purified.
The target is the same in test [2]. In words: SEC-MALS; Superdex200 10/300 SEC with in-line right-angle light-scattering/refractive index detector; 100 μM MxA^MO1; 20 mM HEPES (pH 7.3), 150 mM NaCl, 4 mM MgCl2, 1 mM DTT; no nucleotide; both purified.

No constants are given. Whether binding was seen depends on the method and setting.

B1: MxA^MO1 (monomeric human MxA construct for crystallization) (protein, UniProt P20591)
chain: PGSVAENNLCSQYEEKVRPCIDLIDSLRALGVEQDLALPAIAVIGDQSSGKSSVLEALSGVALPRGSGIVTRCPLVLKLKKLVNEDKWRGKVSYQDYEIEISDASEVEKEINKAQNAIAGEGMGISHELITLEISSRDVPDLTLIDLPGITRVAVGNQPADIGYKIKTLIKKYIQRQETISLVVVPSNVDIATTEALSMAQEVDPEGDRTIGILTKPDLVDKGTEDKVVDVVRNLVFHLKKGYMIVKCRGQQEIQDQLSLSEALQREKIFFENHPYFRDLLEEGKATVPCLAEKLTSELITHICKSLPLLENQIKETHQRITEELQKYGVDIPEDENEKMFFLSDKVNAFNQDITALMQGEETVGEEDIRLFTRLRHEFHKWSTIIENNFQEGHKILSRKIQKFENQYRGRELPGFVNYRTFETIVKQQIKALEEPAVDMLHTVTDMVRLAFTDVSIKNFEEFFNLHRTAKSKIEDIRAEQEREGEKLIRLHFQDEQIVYGAFQSSSATDSSMEEIFQHLMAYHQEASKRISSHIPLIIQFFMLQTYGQQLQSAMSQLSQDKDTYSWLLKERSDTSDKRKFLKERLARLTQARRRLAQFPG
B1: the binding entry in test [1] is reported as “no binding”; in test [2], “no binding (tested: 100 μM)”.
